Measured values: paper PMC9133088
Results are given in words; binding and its absence hold for the method and conditions named. In cells and extracts the contact can be indirect. Some entries that bind do so weakly or less than the wild type.

Sequences of proteins named here, by UniProt entry; tags and fusion partners are left off.
UniProt Q9P2J5: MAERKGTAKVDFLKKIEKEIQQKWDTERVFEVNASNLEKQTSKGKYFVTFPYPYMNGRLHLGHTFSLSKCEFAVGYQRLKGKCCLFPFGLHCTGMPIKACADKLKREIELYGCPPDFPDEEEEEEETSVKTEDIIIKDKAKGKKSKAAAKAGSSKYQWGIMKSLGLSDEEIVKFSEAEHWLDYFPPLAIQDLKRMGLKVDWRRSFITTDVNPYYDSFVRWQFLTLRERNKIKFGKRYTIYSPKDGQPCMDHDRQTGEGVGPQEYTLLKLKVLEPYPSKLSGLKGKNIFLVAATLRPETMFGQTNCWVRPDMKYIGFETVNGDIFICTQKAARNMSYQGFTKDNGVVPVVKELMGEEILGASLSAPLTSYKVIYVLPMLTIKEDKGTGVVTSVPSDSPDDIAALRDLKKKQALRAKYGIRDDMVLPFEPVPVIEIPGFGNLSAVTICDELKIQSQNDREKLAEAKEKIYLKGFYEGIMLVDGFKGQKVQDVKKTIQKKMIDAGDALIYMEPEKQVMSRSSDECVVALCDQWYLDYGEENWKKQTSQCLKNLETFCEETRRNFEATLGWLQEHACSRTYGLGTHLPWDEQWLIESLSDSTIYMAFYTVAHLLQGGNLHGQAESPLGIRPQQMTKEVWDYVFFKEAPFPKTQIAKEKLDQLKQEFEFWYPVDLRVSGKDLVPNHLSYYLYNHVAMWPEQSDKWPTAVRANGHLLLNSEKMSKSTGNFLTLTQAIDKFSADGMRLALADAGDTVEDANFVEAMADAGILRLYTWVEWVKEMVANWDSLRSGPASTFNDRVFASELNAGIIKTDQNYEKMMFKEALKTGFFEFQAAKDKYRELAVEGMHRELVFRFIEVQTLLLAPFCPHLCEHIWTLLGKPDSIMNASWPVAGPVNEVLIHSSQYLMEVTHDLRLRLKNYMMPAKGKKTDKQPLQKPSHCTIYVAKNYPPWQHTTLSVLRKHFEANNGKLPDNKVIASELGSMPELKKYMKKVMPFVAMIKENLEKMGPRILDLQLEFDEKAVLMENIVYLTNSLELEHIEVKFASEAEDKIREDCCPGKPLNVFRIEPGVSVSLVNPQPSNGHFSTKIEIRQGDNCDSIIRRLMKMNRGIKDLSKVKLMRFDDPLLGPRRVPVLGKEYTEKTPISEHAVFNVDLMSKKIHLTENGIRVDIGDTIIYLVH

Biological target: leucyl-tRNA synthetase 1 (LARS1), endogenous (human (endogenous in SW620)) (UniProt Q9P2J5)
Assay: co-IP; endogenous proteins, SW620 lysates; anti-LARS1 antibody-conjugated agarose beads, immunoblot; lysis in 50 mM Tris-HCl pH 7.4, 10 mM NaCl, 0.5% Triton X-100; cells leucine-starved 1.5 h then 0.4 mM leucine 15 min with 11 mM glucose (Fig. 1f), or glucose-starved up to 4 h and glucose re-added up to 30 min (Fig. 2c, 5g, 5i)

B1: O-GlcNAc transferase (OGT1), endogenous (enzyme, UniProt O15294 1-1046)
chain: MASSVGNVADSTEPTKRMLSFQGLAELAHREYQAGDFEAAERHCMQLWRQEPDNTGVLLLLSSIHFQCRRLDRSAHFSTLAIKQNPLLAEAYSNLGNVYKERGQLQEAIEHYRHALRLKPDFIDGYINLAAALVAAGDMEGAVQAYVSALQYNPDLYCVRSDLGNLLKALGRLEEAKACYLKAIETQPNFAVAWSNLGCVFNAQGEIWLAIHHFEKAVTLDPNFLDAYINLGNVLKEARIFDRAVAAYLRALSLSPNHAVVHGNLACVYYEQGLIDLAIDTYRRAIELQPHFPDAYCNLANALKEKGSVAEAEDCYNTALRLCPTHADSLNNLANIKREQGNIEEAVRLYRKALEVFPEFAAAHSNLASVLQQQGKLQEALMHYKEAIRISPTFADAYSNMGNTLKEMQDVQGALQCYTRAIQINPAFADAHSNLASIHKDSGNIPEAIASYRTALKLKPDFPDAYCNLAHCLQIVCDWTDYDERMKKLVSIVADQLEKNRLPSVHPHHSMLYPLSHGFRKAIAERHGNLCLDKINVLHKPPYEHPKDLKLSDGRLRVGYVSSDFGNHPTSHLMQSIPGMHNPDKFEVFCYALSPDDGTNFRVKVMAEANHFIDLSQIPCNGKAADRIHQDGIHILVNMNGYTKGARNELFALRPAPIQAMWLGYPGTSGALFMDYIITDQETSPAEVAEQYSEKLAYMPHTFFIGDHANMFPHLKKKAVIDFKSNGHIYDNRIVLNGIDLKAFLDSLPDVKIVKMKCPDGGDNADSSNTALNMPVIPMNTIAEAVIEMINRGQIQITINGFSISNGLATTQINNKAATGEEVPRTIIVTTRSQYGLPEDAIVYCNFNQLYKIDPSTLQMWANILKRVPNSVLWLLRFPAVGEPNIQQYAQNMGLPQNRIIFSPVAPKEEHVRRGQLADVCLDTPLCNGHTTGMDVLWAGTPMVTMPGETLASRVAASQLTCLGCLELIAKNRQEYEDIAVKLGTDLEYLKKVRGKVWKQRISSPLFNTKQYTMELERLYLQMWEHYAAGNKPDHMIKPVEVTESA
binding: binds
